# Among all 400,000 compounds or so, about 5,500 (1.4%) were called active. The inconclusive results got no clear call from the source; some entries with a clear call stand among them for comparison. Calls come from the whole dose curve; as a rule, active = well fitted cell-killing curve with a large enough effect; inconclusive = small, poorly fitted or top-dose-only effect, or effect the other way; inactive = flat fitted curve, though single readings scatter. Potencies of inconclusive entries are doubtful fits and often do not repeat.
# Experiment: qHTS assay for MDR1-selective chemotherapeutics: Primary screen using the parental adenocarcinoma cell KB-3-1; note: nearly all actives have a fitted effect of over 60% in size
# Details: KB-3-1 viability, CellTiter-Glo ATP luminescence, 72 h; activity change, negative = cytotoxic: at 46.1 µM (top of the series)
# How it was run: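 Luminescent ATP read-out (CellTiter-Glo) measures survival of drug-naive KB-3-1 cells after 72 h compound exposure at 37 °C. Titration series was screened from lowest to highest concentration, with DMSO vehicle plates as background controls.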
# % is set by controls: 0 for no effect and ±100 for the full control effect; potency is the fitted concentration of half-maximal effect.
Compound,Potency,"activity change, negative = cytotoxic"
Brc1ccc2ncnc(NCc3ccccc3)c2c1,active: 11.6 µM,–
Cc1cc(C)c(C(=O)c2ccc(C(=O)NC(C)(C)C)cc2)c(C)c1,–,inactive: 1.22%
O=C1CC(/C=C/c2ccncc2)=Nc2ccccc2N1,"inconclusive: 20.6 µM [cytotoxic, single point]",–
COc1cccc(CN(C)C(=O)c2cc(-c3ccc(F)cc3)nc3ccccc23)c1,–,inactive: 0%
COC(=O)c1c(C(=O)OC)c(-c2cccc(F)c2)n2c1CS(=O)(=O)C2,–,inactive: -0.33%
O=C1CCCN1CCCNc1ncccc1[N+](=O)[O-],"inconclusive: 0.082 µM [rising, full curve]",–
O=C(NNC(=O)c1ccccc1O)c1ccc(Cl)c(S(=O)(=O)N2CCCCC2)c1,"inconclusive: 9.2 µM [cytotoxic, partial curve, poor fit]",–
CCOc1ccc(S(=O)(=O)NCCC(=O)NCc2ccc(OC)c(OC)c2)cc1,–,inactive: 9.69%
O=C(Nc1cccc(S(=O)(=O)N2CCCCC2)c1)c1ccc(S(=O)(=O)C(F)F)cc1,"inconclusive: 20.6 µM [cytotoxic, single point]",–
CCNC(COC(=O)c1ccc([N+](=O)[O-])cc1)C1CCCCC1 (stereo not drawn),–,inactive: -0.462%
C/C(N)=C(/C#N)C(=O)CSc1nc2scc(-c3ccccc3)c2c(=O)n1C,"inconclusive: 23.1 µM [rising, single point]",–
CCOc1ccc2[nH]cc(S(=O)(=O)c3ccc(F)cc3)c(=O)c2c1,"inconclusive: 29.1 µM [cytotoxic, single point]",–
CC(=O)Oc1c(C)c2c3c(c1OC(C)=O)[C@@H](C)CC[C@@H]3[C@@H](C)C[C@H]2C=C(C)C,–,inactive: 8.85%
O=C(NCc1ccco1)c1sc(=S)n2c1[nH]c(=O)c1ccccc12,"inconclusive: 14.6 µM [cytotoxic, partial curve, poor fit]",–
O=C(CSc1nnc(-c2ccco2)n1-c1ccccc1)NCc1ccc2c(c1)OCO2,–,inactive: -0.205%
COC(=O)c1c(C)oc2ccc(N(C(=O)Oc3ccccc3)S(=O)(=O)c3ccccc3)cc12,"inconclusive: 18.4 µM [cytotoxic, single point]",–
C=CCOC(=O)C1=C(C)OC(N)=C(C#N)C1c1ccc2c(c1)OCO2 (stereo not drawn),–,inactive: -6.89%
COc1ccccc1NC1=NC(c2ccc(Cl)cc2)N=C(N)N1 (stereo not drawn),active: 3.66 µM,–
C=CCc1cc(C=Nc2ccc(N3CCOCC3)cc2)cc(OCC)c1O,"inconclusive: 2.59 µM [cytotoxic, partial curve, poor fit]",–
NS(=O)(=O)c1ccc(-c2ccc(/C=C3\SC(=S)N(C4CCS(=O)(=O)C4)C3=O)o2)cc1 (stereo not drawn),"inconclusive: 0.0259 µM [rising, full curve]",–
Cc1nc(-n2[nH]c3c(c2=O)CCCC3)[nH]c(=O)c1Cc1ccccc1,"inconclusive: 29.1 µM [cytotoxic, single point]",–
C[C@H](CO)N1C[C@H](C)[C@@H](CN(C)S(C)(=O)=O)Oc2ccc(NS(=O)(=O)c3ccccc3)cc2C1=O,–,inactive: 27.5%
O=C(CCC1N=C2c3ccccc3N=C(SCc3ccccc3F)N2C1=O)NCc1ccc(F)cc1 (stereo not drawn),–,inactive: 1.24%

# Complete entries, quoted from the list. Order of values: Potency | activity change, negative = cytotoxic
# CC(=O)Oc1c(C)c2c3c(c1OC(C)=O)[C@@H](C)CC[C@@H]3[C@@H](C)C[C@H]2C=C(C)C in the list: – | inactive: 8.85%
# O=C(NNC(=O)c1ccccc1O)c1ccc(Cl)c(S(=O)(=O)N2CCCCC2)c1 in the list: inconclusive: 9.2 µM [cytotoxic, partial curve, poor fit] | –
# O=C(NCc1ccco1)c1sc(=S)n2c1[nH]c(=O)c1ccccc12 in the list: inconclusive: 14.6 µM [cytotoxic, partial curve, poor fit] | –
# O=C(Nc1cccc(S(=O)(=O)N2CCCCC2)c1)c1ccc(S(=O)(=O)C(F)F)cc1 in the list: inconclusive: 20.6 µM [cytotoxic, single point] | –

# Further structures:

Compound,Potency,"activity change, negative = cytotoxic"
CCOC(=O)c1ccc(-n2[nH]c(-c3ccccc3)cc2=O)cc1,"inconclusive: 29.1 µM [cytotoxic, single point]",–
CCn1c(C)nc2cc(S(=O)(=O)Nc3ccc(C)cc3)ccc21,–,inactive: -14.7%
Cc1nc(N2CCN(c3ccccn3)CC2)c2c(C)c(C(=O)Nc3c(C)cc(Br)cc3C)sc2n1,–,inactive: -28.4%
CN(CCCNC(=O)Cn1c(=O)c2cccn2c2ccccc21)Cc1ccccc1,"inconclusive: 29.1 µM [rising, single point]",–
COc1cccc(CC2(CO)CCN(Cc3cnc(-c4cccc(C)c4)nc3)CC2)c1,"inconclusive: 29.1 µM [cytotoxic, single point]",–
CSc1ccc(CSCC(=O)N2CCN(S(=O)(=O)c3ccc(C)cc3C)CC2)cc1,"inconclusive: 18.4 µM [cytotoxic, single point]",–
COc1ccc(CNC(=O)Cn2c(=O)cc(-c3ccccc3)c3c(C)nn(C)c32)cc1,–,inactive: -9.5%
COc1ccc(S(=O)(=O)N(CC(=O)Nc2cccnc2)c2ccc(Cl)cc2)cc1,–,inactive: -2.44%
CC(C)C1C(C#N)=C(N)Oc2n[nH]c(-c3ccc4ccccc4c3)c21 (stereo not drawn),"inconclusive: 18.4 µM [cytotoxic, single point]",–
O=C(c1cccc(Cl)c1)C1CCCN(Cc2ccc(N3CCNC3=O)cc2)C1 (stereo not drawn),"inconclusive: 23.1 µM [cytotoxic, single point]",–
CC(CCc1ccc(O)cc1)NCCc1ccc(O)c(O)c1 (stereo not drawn),"inconclusive: 25.9 µM [cytotoxic, single point]",–
CCc1cc(-c2n[nH]c(=S)n2-c2ccccc2C)cs1,–,inactive: -6.62%
COC(=O)c1ccc2c(c1)C(C)(C)C(/C=C/c1ccccc1O)=[N+]2C,active: 4.47 µM,–
CC(C)S(=O)(=O)c1csc(NC(=O)Nc2cc(Cl)ccc2Cl)c1Cl,"inconclusive: 23.1 µM [cytotoxic, single point]",–
CN(C)CCCOc1ccc(C(C)(C)c2ccccc2)cc1,"inconclusive: 29.1 µM [cytotoxic, single point]",–
CC(=O)Nc1cccc(-c2ccnc3c2CC(C(=O)NCCC(F)(F)F)O3)c1 (stereo not drawn),"inconclusive: 29.1 µM [cytotoxic, single point]",–
O=C(O)Cn1ccc2cc(S(=O)(=O)N3CCCCCC3)ccc21,"inconclusive: 20.6 µM [rising, single point]",–
CN(c1ccccc1)S(=O)(=O)c1ccc(Cl)c(C(=O)Nc2nn[nH]n2)c1,–,inconclusive: -45.8%
O=C(/C=C/c1ccc2c(c1)OCO2)c1ccco1,–,inactive: -10.2%
Cc1ccc(C)c(N2CCN(C(=O)c3ccc4c(=O)n5c(nc4c3)CCCCC5)CC2)c1,"inconclusive: 20.6 µM [cytotoxic, single point]",–
O=C(Cn1c(=O)oc2cc(S(=O)(=O)N3CCc4ccccc43)ccc21)NC1CCCC1,"inconclusive: 18.4 µM [cytotoxic, single point]",–
CC1(C)CC(=O)C2=C(C1)Nc1cc3c(cc1C2c1ccc2c(c1)OCO2)OCO3 (stereo not drawn),"inconclusive: 2.91 µM [cytotoxic, partial curve, poor fit]",–
O=C(N/N=C/c1ccc(N2CCOCC2)o1)c1cccc(F)c1,–,inactive: 14.6%

Compound,Potency,"activity change, negative = cytotoxic"
CCOC(=O)c1sc2nc3c(cc2c1N)COC(C)(C)C3,"inconclusive: 29.1 µM [rising, single point]",–
O=C(Nc1ccc(Cl)c(C(F)(F)F)c1)NC1CC2CCCC(C1)N2C1CC1 (stereo not drawn),"inconclusive: 31.6 µM [cytotoxic, single point]",–
O=C1CCC/C=C\C[C@H](CC(=O)N(CCO)Cc2ccccc2)C(=O)N2CCC[C@@H]2CO1,–,inactive: 8.73%
COc1ccc(NC(=O)CCS(=O)(=O)c2ccc(Br)s2)cc1,–,inactive: -17.4%
Cc1cc(N2CCN(c3nc(-c4ccccc4)cs3)CC2)c2ccccc2n1,"inconclusive: 16.4 µM [cytotoxic, single point]",–
CCNC(=S)NNC(=O)c1cc(-c2ccc(OCC)cc2)nc2ccccc12,"inconclusive: 20 µM [cytotoxic, single point]",–
COc1ccccc1S(=O)(=O)N(C)C[C@H]1Oc2cc(C#CCC3CCCC3)ccc2S(=O)(=O)N([C@H](C)CO)C[C@H]1C,–,inactive: -14.1%
COc1ccc(NC(=O)Nc2ccc3c(c2)C(=O)N([C@H](C)CO)C[C@@H](C)[C@@H](CN(C)C(=O)C2CCCCC2)OCCCC[C@H](C)O3)cc1,–,inactive: -8.52%
COC1=C(Nc2ccc(O)cc2)C(=O)c2ccccc2C1=O,"inconclusive: 29.1 µM [cytotoxic, single point]",–
O=C(CSc1nn(-c2ccccc2)c(=S)s1)NC1CCS(=O)(=O)C1 (stereo not drawn),"inconclusive: 14.6 µM [rising, partial curve, poor fit]",–
CCc1nc2c(OCCC3CCCCC3)cccn2c1N(C)C(=O)c1ccc(OC)cc1,"inconclusive: 20.6 µM [cytotoxic, single point]",–
CC(=O)N(O)c1ccc(C=Cc2ccccc2)cc1,"inconclusive: 23.1 µM [cytotoxic, partial curve, poor fit]",–
Cc1sc(-n2c(C)cc(/C=C3\SC(=S)NC3=O)c2C)c(C#N)c1C,"inconclusive: 10.3 µM [cytotoxic, partial curve, poor fit]",–
CC1CCN(S(=O)(=O)c2nnc(NC(=O)c3cccc(Br)c3)s2)CC1,"inconclusive: 20.6 µM [cytotoxic, single point]",–
COc1ccc(-c2cc3nc(CCl)[nH]c(=O)c3s2)cc1,"inconclusive: 23.1 µM [cytotoxic, single point]",–
CCCOc1cccc(-c2nn(-c3ccccc3)cc2/C=C(\C#N)C(=O)NCCCn2ccnc2)c1,–,inactive: -8.58%
CCOC(=O)N1CCN(C(=O)c2ccc3c(c2)NC(=O)/C(=C\c2ccc(OC)c(OC)c2)S3)CC1,"inconclusive: 23.1 µM [cytotoxic, single point]",–
CCc1ccc(S(=O)(=O)/N=C2\C=C(Nc3ccc(C(=O)O)cc3)C(=O)c3ccccc32)cc1,"inconclusive: 29.1 µM [cytotoxic, single point]",–
Cc1ccc(-c2nnc3ccccc3c2C(=O)Nc2ccccc2F)cc1,–,inactive: 19.6%
Cc1ccc(C)c(Cn2nnc3c(=O)[nH]c(C(=O)NCc4ccco4)nc32)c1,–,inactive: 0.687%
NS(=O)(=O)c1ccc(N2CCN(CCOc3ccc(Cl)cc3)CC2)nc1,"inconclusive: 20.6 µM [cytotoxic, single point]",–
CCc1nc2c(C#N)c(-c3ccc(Cl)cc3)ccn2n1,"inconclusive: 20.6 µM [cytotoxic, single point]",–
